Reference: the supplement of paper PMC12067093, “Discovery and optimisation of a covalent ligand for TRIM25 and its application to targeted protein ubiquitination” (Chemical Science, 2025)
This is one part of the list.

Protein sequences, listed by entry. Tags and fused reporters are not part of them. Lines headed by an entry give the natural chain unless they say otherwise; changes in a name come on top.
UniProt O60841: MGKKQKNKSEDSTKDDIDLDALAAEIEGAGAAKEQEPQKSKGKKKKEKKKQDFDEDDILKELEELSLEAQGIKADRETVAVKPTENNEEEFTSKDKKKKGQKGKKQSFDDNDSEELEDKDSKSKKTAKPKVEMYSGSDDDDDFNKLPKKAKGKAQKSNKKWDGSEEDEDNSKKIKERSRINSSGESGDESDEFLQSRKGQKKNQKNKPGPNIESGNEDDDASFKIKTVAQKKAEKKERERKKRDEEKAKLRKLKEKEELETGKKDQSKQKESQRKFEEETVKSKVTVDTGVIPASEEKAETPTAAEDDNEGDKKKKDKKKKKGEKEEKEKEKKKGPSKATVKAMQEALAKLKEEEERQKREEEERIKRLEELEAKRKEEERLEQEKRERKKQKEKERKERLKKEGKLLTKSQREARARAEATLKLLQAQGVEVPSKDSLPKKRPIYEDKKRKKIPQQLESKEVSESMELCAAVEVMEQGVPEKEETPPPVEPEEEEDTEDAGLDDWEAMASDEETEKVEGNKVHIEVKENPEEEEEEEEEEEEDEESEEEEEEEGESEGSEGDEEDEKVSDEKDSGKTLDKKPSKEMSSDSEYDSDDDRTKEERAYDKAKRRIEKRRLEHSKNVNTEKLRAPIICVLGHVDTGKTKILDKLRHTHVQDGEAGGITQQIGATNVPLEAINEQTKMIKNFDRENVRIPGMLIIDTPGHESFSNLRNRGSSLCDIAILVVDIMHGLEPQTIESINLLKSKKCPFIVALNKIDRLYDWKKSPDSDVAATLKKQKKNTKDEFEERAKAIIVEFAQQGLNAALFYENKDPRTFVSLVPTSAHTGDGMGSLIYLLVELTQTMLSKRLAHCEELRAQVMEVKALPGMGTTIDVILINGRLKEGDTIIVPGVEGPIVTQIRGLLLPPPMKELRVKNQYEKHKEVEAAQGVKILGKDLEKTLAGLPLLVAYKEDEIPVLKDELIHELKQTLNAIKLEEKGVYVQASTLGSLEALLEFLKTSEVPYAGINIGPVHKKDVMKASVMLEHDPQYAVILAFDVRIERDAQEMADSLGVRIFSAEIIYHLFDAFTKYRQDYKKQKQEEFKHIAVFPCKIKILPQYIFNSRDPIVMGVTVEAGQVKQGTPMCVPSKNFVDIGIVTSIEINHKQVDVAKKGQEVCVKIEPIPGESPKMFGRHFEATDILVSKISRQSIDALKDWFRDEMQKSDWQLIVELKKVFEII
UniProt P07814: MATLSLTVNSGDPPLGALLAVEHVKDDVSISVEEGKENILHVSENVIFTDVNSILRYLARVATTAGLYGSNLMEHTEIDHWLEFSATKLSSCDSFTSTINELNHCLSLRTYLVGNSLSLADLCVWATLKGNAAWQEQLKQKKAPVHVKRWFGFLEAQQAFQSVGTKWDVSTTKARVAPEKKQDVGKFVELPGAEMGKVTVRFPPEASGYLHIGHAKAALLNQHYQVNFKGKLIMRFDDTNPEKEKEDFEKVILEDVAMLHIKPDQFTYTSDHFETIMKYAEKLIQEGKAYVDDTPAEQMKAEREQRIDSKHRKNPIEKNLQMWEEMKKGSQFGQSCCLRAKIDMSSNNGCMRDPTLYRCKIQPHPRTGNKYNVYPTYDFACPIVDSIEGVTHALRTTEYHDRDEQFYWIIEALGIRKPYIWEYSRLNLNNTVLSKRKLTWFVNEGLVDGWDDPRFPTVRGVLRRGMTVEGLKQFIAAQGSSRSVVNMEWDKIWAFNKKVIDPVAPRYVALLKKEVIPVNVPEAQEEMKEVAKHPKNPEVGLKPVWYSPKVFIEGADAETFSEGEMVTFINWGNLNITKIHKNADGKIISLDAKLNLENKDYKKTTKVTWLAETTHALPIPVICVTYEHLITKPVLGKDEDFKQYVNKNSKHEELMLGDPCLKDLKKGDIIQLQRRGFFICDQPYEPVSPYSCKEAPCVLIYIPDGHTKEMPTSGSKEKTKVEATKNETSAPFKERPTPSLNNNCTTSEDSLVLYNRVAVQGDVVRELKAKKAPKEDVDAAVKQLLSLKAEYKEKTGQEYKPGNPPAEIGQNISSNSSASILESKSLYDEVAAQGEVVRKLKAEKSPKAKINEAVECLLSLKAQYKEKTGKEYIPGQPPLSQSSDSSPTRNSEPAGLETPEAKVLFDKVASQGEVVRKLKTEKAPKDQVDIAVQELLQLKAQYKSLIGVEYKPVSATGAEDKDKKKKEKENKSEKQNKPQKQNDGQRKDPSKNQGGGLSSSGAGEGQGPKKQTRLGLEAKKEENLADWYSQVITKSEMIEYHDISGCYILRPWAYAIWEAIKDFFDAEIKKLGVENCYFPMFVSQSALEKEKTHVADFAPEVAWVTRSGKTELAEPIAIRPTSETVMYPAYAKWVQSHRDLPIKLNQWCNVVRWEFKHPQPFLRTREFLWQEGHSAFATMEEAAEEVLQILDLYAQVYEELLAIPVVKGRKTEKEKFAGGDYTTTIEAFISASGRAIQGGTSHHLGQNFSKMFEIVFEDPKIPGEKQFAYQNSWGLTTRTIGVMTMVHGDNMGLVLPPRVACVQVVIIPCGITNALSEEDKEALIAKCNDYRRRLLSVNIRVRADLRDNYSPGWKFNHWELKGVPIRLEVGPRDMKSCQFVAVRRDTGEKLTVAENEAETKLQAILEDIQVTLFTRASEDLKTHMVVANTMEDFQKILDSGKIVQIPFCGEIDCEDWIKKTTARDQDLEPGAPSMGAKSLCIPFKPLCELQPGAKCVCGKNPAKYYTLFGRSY
UniProt P19447: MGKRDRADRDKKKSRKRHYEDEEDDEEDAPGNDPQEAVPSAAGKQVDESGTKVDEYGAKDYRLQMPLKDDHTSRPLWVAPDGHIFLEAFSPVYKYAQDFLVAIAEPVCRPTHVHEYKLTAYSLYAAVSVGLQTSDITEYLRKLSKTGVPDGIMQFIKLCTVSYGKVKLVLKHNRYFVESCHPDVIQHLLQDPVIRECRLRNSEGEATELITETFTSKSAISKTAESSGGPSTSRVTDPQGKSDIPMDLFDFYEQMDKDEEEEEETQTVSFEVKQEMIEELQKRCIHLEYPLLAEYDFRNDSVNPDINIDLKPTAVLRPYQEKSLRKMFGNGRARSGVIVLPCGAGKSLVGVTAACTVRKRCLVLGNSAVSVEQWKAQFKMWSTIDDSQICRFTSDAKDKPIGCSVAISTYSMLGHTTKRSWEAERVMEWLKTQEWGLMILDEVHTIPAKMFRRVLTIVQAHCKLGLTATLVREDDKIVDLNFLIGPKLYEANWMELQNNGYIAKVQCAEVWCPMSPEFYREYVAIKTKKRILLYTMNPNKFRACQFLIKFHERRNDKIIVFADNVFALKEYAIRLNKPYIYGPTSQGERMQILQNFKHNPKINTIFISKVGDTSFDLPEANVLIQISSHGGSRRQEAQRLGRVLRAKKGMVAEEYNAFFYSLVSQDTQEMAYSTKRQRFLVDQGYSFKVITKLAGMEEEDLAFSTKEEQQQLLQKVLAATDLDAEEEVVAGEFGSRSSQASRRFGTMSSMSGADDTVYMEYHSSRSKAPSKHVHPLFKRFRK
UniProt Q9HC35: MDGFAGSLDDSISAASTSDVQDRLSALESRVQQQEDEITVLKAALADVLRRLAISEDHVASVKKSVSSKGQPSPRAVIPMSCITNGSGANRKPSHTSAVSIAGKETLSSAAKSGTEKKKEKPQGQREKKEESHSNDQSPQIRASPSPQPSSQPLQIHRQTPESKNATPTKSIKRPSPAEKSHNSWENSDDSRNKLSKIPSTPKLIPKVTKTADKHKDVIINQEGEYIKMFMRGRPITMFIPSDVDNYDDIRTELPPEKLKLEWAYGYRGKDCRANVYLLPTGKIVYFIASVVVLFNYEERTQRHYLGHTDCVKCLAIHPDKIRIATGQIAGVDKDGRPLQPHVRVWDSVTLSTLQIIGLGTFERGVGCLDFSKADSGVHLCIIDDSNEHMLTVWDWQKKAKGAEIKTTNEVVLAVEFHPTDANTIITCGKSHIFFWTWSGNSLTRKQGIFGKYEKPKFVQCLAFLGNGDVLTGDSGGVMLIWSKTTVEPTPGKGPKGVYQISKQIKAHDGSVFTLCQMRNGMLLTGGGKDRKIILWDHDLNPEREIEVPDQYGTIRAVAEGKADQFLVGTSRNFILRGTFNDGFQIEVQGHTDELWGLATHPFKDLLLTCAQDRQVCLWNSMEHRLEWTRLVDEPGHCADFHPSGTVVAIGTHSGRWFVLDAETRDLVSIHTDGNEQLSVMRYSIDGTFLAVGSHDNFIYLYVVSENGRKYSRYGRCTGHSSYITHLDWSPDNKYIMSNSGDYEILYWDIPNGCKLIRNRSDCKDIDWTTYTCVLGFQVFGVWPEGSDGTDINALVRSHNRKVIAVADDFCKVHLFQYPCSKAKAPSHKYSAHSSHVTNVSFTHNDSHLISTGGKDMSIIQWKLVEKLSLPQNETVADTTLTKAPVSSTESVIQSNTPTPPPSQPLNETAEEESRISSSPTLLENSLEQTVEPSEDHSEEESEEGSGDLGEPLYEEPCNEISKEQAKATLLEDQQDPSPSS
UniProt Q13347, whole entry, looked up: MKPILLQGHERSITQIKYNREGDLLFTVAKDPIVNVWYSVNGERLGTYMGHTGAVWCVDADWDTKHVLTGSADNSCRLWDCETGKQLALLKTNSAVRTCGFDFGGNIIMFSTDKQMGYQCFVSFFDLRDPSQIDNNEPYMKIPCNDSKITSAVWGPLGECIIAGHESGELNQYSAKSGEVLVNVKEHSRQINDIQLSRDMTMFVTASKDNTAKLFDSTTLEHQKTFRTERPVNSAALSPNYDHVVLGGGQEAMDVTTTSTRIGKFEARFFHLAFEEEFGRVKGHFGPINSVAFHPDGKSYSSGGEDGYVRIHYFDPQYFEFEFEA
UniProt Q13541: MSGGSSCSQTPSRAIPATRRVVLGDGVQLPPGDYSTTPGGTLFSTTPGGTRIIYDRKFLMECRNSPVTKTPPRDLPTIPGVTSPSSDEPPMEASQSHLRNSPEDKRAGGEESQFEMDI
UniProt Q15369, whole entry, looked up: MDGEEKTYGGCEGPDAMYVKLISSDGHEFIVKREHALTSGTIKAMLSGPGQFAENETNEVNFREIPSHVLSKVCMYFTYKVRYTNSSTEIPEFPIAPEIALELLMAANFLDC
UniProt P49961, whole entry: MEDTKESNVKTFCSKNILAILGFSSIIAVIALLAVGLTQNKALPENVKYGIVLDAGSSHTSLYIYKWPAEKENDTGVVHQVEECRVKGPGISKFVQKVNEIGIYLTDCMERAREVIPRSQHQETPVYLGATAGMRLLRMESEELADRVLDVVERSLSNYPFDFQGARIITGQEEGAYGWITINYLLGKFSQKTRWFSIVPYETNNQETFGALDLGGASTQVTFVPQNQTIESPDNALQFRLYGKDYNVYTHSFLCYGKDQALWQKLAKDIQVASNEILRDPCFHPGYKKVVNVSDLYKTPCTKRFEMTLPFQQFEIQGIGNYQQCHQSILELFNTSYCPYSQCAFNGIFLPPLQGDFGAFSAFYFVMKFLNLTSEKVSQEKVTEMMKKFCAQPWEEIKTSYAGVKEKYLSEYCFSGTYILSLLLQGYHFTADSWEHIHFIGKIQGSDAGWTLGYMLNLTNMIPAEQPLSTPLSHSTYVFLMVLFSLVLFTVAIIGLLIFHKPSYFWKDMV
UniProt O75822, whole entry, looked up: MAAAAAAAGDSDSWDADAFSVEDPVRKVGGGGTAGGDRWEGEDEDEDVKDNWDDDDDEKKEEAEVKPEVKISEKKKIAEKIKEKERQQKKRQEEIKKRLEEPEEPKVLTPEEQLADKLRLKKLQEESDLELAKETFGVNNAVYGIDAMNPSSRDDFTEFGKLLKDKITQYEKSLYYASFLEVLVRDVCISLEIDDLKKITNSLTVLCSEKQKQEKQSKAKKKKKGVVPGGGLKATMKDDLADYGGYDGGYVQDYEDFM
UniProt P08246: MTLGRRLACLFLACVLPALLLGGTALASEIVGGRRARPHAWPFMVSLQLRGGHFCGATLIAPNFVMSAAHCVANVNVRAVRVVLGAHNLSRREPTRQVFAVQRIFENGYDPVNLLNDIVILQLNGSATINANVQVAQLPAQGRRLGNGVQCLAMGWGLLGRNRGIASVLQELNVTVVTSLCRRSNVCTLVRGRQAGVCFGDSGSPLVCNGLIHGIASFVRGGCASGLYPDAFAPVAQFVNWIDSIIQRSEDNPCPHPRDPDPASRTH
UniProt P38919, whole entry, looked up: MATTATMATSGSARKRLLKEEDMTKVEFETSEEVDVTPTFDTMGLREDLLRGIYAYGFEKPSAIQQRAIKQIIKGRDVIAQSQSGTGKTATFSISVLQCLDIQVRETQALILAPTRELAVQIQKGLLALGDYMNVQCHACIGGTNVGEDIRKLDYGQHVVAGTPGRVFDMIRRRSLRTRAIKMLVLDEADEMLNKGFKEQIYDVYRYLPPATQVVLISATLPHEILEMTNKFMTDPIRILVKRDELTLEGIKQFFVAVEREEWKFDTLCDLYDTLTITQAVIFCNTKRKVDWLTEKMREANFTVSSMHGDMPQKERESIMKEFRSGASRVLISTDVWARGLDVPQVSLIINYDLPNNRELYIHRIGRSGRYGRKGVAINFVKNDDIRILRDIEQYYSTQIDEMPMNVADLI

Compound: Cc1cc(ccc1-c1ccccc1)C(=O)N1CCCN(CC1)C(=O)CCl [compound 10]
Assay: probe-labelled cysteine peptide fold change vs DMSO (competition) (log2 fold change); higher = less target engagement (more negative = stronger competition)
Conditions: THP-1, incubation time: 4 h
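Also: competitive profiling in live THP-1 cells: cysteine peptides tagged with an iodoacetamide desthiobiotin (IA-DTB) probe, intensity after compound treatment relative to DMSO-treated cells.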

In the case of “ERC1_Q8IUD2_1034_LYIGHLTTLCHDRDPLILR (UniProt Q8IUD2)”, the “probe-labelled cysteine peptide fold change” value (10 µM) is reported as -0.00605 and the “probe-labelled cysteine peptide fold change” value (50 µM) is reported as -0.0575.
With “EP300_Q09472_364_QCNLPHCR (UniProt Q09472)” the “probe-labelled cysteine peptide fold change” value (10 µM) was 0.248 and the “probe-labelled cysteine peptide fold change” value (50 µM) was 0.155.
For “EIF3L_Q9Y262_417_GDPQVYEELFSYSCPK (UniProt Q9Y262)”, the “probe-labelled cysteine peptide fold change” value (10 µM) was -0.185 and the “probe-labelled cysteine peptide fold change” value (50 µM) was -0.215.
For “ERCC2_P18074_491_VCLCPMIIGR (UniProt P18074)”, the “probe-labelled cysteine peptide fold change” value (10 µM) was 0.0515 and the “probe-labelled cysteine peptide fold change” value (50 µM) was -0.804.
With “ELP3_Q9H9T3_456_CSEETFR (UniProt Q9H9T3)” the “probe-labelled cysteine peptide fold change” value (10 µM) was 0.0674 and the “probe-labelled cysteine peptide fold change” value (50 µM) was 0.137.
For “EIF5B_O60841_1092_HIAVFPCK (UniProt O60841)”, the “probe-labelled cysteine peptide fold change” value (10 µM) was 0.115 and the “probe-labelled cysteine peptide fold change” value (50 µM) was -0.0625.
In the case of “ELOF1_P60002_29_MTGTLETQFTCPFCNHEK (UniProt P60002)”, the “probe-labelled cysteine peptide fold change” value (10 µM) is reported as 0.17 and the “probe-labelled cysteine peptide fold change” value (50 µM) is reported as -0.124.
“EPRS_P07814_92+105_LSSCDSFTSTINELNHCLSLR (UniProt P07814)” was tested, and the “probe-labelled cysteine peptide fold change” value (10 µM) was 0.0532 and the “probe-labelled cysteine peptide fold change” value (50 µM) was -0.00186.
With “ERCC3_P19447_390_MWSTIDDSQICR (UniProt P19447)” the “probe-labelled cysteine peptide fold change” value (10 µM) was -0.145 and the “probe-labelled cysteine peptide fold change” value (50 µM) was -0.298.
For “EML4_Q9HC35_617_QVCLWNSMEHR (UniProt Q9HC35)”, the “probe-labelled cysteine peptide fold change” value (10 µM) was 0.0952 and the “probe-labelled cysteine peptide fold change” value (50 µM) was 0.0026.
For “ELOB_Q15370_89_ADDTFEALCIEPFSSPPELPDVMK (UniProt Q15370)”, the “probe-labelled cysteine peptide fold change” value (10 µM) was -0.137 and the “probe-labelled cysteine peptide fold change” value (50 µM) was 0.317.
With “EIF3I_Q13347_99_TCGFDFGGNIIMFSTDK (UniProt Q13347)” the “probe-labelled cysteine peptide fold change” value (10 µM) was 0.105 and the “probe-labelled cysteine peptide fold change” value (50 µM) was 0.152.
“EIF3I_Q13347_81_LWDCETGK (UniProt Q13347)” was tested, and the “probe-labelled cysteine peptide fold change” value (10 µM) was -0.136 and the “probe-labelled cysteine peptide fold change” value (50 µM) was -0.042.
With “EPRS_P07814_105_LSSCDSFTSTINELNHCLSLR (UniProt P07814)” the “probe-labelled cysteine peptide fold change” value (10 µM) was 0.472 and the “probe-labelled cysteine peptide fold change” value (50 µM) was 0.105.
With “EIF4EBP1_Q13541_62_FLMECR (UniProt Q13541)” the “probe-labelled cysteine peptide fold change” value (10 µM) was 0.0443 and the “probe-labelled cysteine peptide fold change” value (50 µM) was -0.0435.
In the case of “EIF3D_O15371_327_NLAMEATYINHNFSQQCLR (UniProt O15371)”, the “probe-labelled cysteine peptide fold change” value (10 µM) is reported as -0.222 and the “probe-labelled cysteine peptide fold change” value (50 µM) is reported as -0.147.
“EML4_Q9HC35_368_GVGCLDFSK (UniProt Q9HC35)” was tested, and the “probe-labelled cysteine peptide fold change” value (10 µM) was -0.0767 and the “probe-labelled cysteine peptide fold change” value (50 µM) was 0.0607.
ELL_P55199_595_CEYLHSK (UniProt P55199) was tested, and the “probe-labelled cysteine peptide fold change” value (10 µM) was 0.21 and the “probe-labelled cysteine peptide fold change” value (50 µM) was 0.12.
“EIF5B_O60841_635_APIICVLGHVDTGK (UniProt O60841)” was tested, and the “probe-labelled cysteine peptide fold change” value (10 µM) was -0.107 and the “probe-labelled cysteine peptide fold change” value (50 µM) was -0.13.
With “EIF5B_O60841_1158_KGQEVCVK (UniProt O60841)” the “probe-labelled cysteine peptide fold change” value (10 µM) was 0.0629 and the “probe-labelled cysteine peptide fold change” value (50 µM) was 0.0487.
For “ERCC2_P18074_116_NLCIHPEVTPLR (UniProt P18074)”, the “probe-labelled cysteine peptide fold change” value (10 µM) was -0.0927 and the “probe-labelled cysteine peptide fold change” value (50 µM) was -0.272.
“ELMO1_Q92556_411_EDKHECPFGR (UniProt Q92556)” was tested, and the “probe-labelled cysteine peptide fold change” value (10 µM) was -0.035 and the “probe-labelled cysteine peptide fold change” value (50 µM) was -0.282.
With “EIF3M_Q7L2H7_52_GAEISEENSEGGLHVDLAQIIEACDVCLK (UniProt Q7L2H7)” the “probe-labelled cysteine peptide fold change” value (10 µM) was 0.176 and the “probe-labelled cysteine peptide fold change” value (50 µM) was 0.287.
For “ELOC_Q15369_74_VCMYFTYK (UniProt Q15369)”, the “probe-labelled cysteine peptide fold change” value (10 µM) was 0.128 and the “probe-labelled cysteine peptide fold change” value (50 µM) was 0.0537.
In the case of “EPRS_P07814_1448+1453_IVQIPFCGEIDCEDWIK (UniProt P07814)”, the “probe-labelled cysteine peptide fold change” value (10 µM) is reported as 0.0328 and the “probe-labelled cysteine peptide fold change” value (50 µM) is reported as -0.199.
“EPS15_P42566_419_CAEEAQLISSLK (UniProt P42566)” was tested, and the “probe-labelled cysteine peptide fold change” value (10 µM) was -0.00196 and the “probe-labelled cysteine peptide fold change” value (50 µM) was -0.102.
With “EIF5B_O60841_853_LAHCEELR (UniProt O60841)” the “probe-labelled cysteine peptide fold change” value (10 µM) was 0.00613 and the “probe-labelled cysteine peptide fold change” value (50 µM) was -0.0971.
In the case of “ENTPD1_P49961_255_DYNVYTHSFLCYGK (UniProt P49961)”, the “probe-labelled cysteine peptide fold change” value (10 µM) is reported as -0.0423 and the “probe-labelled cysteine peptide fold change” value (50 µM) is reported as 0.108.
With “EIF3J_O75822_188_DVCISLEIDDLKK (UniProt O75822)” the “probe-labelled cysteine peptide fold change” value (10 µM) was 0.183 and the “probe-labelled cysteine peptide fold change” value (50 µM) was 0.15.
“ERCC3_P19447_342_SGVIVLPCGAGK (UniProt P19447)” was tested, and the “probe-labelled cysteine peptide fold change” value (10 µM) was -0.235 and the “probe-labelled cysteine peptide fold change” value (50 µM) was -1.63.
For “EML4_Q9HC35_638_LVDEPGHCADFHPSGTVVAIGTHSGR (UniProt Q9HC35)”, the “probe-labelled cysteine peptide fold change” value (10 µM) was 0.109 and the “probe-labelled cysteine peptide fold change” value (50 µM) was 0.328.
For “EIF3K_Q9UBQ5_85_ALTNLPHTDFTLCK (UniProt Q9UBQ5)”, the “probe-labelled cysteine peptide fold change” value (10 µM) was 0.249 and the “probe-labelled cysteine peptide fold change” value (50 µM) was -0.0819.
“EIF5B_O60841_635_LRAPIICVLGHVDTGK (UniProt O60841)” was tested, and the “probe-labelled cysteine peptide fold change” value (10 µM) was -0.0617 and the “probe-labelled cysteine peptide fold change” value (50 µM) was 0.0478.
With “ERBIN_Q96RT1_68_QLFNCQSLHK (UniProt Q96RT1)” the “probe-labelled cysteine peptide fold change” value (10 µM) was 0.0454 and the “probe-labelled cysteine peptide fold change” value (50 µM) was -0.191.
“ELANE_P08246_198_QAGVCFGDSGSPLVCNGLIHGIASFVR (UniProt P08246)” was tested, and the “probe-labelled cysteine peptide fold change” value (10 µM) was 0.0325 and the “probe-labelled cysteine peptide fold change” value (50 µM) was -0.102.
“EPG5_Q9HCE0_318_QLLLAEAELLTLTSDCQNAK (UniProt Q9HCE0)” was tested, and the “probe-labelled cysteine peptide fold change” value (10 µM) was -0.0281 and the “probe-labelled cysteine peptide fold change” value (50 µM) was 0.284.
With “EIF4A3_P38919_140_GLLALGDYMNVQCHACIGGTNVGEDIRK (UniProt P38919)” the “probe-labelled cysteine peptide fold change” value (10 µM) was 0.22 and the “probe-labelled cysteine peptide fold change” value (50 µM) was 0.0635.
In the case of “EPRS_P07814_680_RGFFICDQPYEPVSPYSCK (UniProt P07814)”, the “probe-labelled cysteine peptide fold change” value (10 µM) is reported as -0.111 and the “probe-labelled cysteine peptide fold change” value (50 µM) is reported as -0.437.
“ELP2_Q6IA86_127_RTSDPALCTLIVSAAADSAVR (UniProt Q6IA86)” was tested, and the “probe-labelled cysteine peptide fold change” value (10 µM) was -0.0394 and the “probe-labelled cysteine peptide fold change” value (50 µM) was 0.195.
With “EPS15L1_Q9UBC2_470_CQDETQMISSLK (UniProt Q9UBC2)” the “probe-labelled cysteine peptide fold change” value (10 µM) was -0.0116 and the “probe-labelled cysteine peptide fold change” value (50 µM) was -0.0866.
With “EIF4G3_O43432_301_CELSSPR (UniProt O43432)” the “probe-labelled cysteine peptide fold change” value (10 µM) was -0.377 and the “probe-labelled cysteine peptide fold change” value (50 µM) was -0.35.
In the case of “ELANE_P08246_151_LGNGVQCLAMGWGLLGR (UniProt P08246)”, the “probe-labelled cysteine peptide fold change” value (10 µM) is reported as -0.368 and the “probe-labelled cysteine peptide fold change” value (50 µM) is reported as -0.481.
